Data reported in PMC9650896.
These are yes or no findings as the source states them, for the method shown. Binding seen in cells or lysates may run through a third protein. Some entries that bind do so weakly or less than the wild type.

Protein sequences, listed by entry. Tags and fused reporters are not part of them.
UniProt Q04206: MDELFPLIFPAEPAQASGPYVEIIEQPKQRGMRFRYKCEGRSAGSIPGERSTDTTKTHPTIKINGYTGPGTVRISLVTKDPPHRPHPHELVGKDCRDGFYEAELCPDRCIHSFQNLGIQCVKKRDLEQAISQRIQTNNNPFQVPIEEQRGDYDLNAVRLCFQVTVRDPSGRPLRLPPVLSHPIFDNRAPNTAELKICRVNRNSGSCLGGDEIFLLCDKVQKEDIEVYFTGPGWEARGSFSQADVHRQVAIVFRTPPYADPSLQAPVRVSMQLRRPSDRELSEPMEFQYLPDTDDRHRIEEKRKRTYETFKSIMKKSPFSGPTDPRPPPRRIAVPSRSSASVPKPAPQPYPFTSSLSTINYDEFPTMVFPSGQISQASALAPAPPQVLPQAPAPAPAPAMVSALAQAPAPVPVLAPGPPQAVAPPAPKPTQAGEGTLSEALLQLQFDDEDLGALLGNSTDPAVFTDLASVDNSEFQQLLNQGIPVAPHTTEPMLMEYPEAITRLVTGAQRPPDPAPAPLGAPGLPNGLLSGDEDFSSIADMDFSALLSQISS
UniProt P46937: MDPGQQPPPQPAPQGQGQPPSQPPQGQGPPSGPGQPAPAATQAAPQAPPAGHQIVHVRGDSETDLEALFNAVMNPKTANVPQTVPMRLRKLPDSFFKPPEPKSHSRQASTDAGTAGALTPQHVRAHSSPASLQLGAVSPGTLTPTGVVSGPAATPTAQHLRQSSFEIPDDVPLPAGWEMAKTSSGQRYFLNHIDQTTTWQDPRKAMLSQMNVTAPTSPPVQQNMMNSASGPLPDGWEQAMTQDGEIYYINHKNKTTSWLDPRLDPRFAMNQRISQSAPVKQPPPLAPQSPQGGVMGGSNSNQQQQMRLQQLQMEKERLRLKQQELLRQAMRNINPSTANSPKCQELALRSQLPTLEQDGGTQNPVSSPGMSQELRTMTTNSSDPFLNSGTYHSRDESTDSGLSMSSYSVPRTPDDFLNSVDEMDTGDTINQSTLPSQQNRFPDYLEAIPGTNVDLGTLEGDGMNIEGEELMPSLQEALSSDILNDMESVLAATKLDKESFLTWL

Molecular target: NF-κB p65 (human (endogenous in A549)) (UniProt Q04206)
Assay: co-IP; A549 cells stimulated for 30 min with thrombin (10 U/ml), with or without control siRNA or DCLK1 siRNA for 48 h beforehand; supernatants immunoprecipitated overnight at 4 °C with anti-NF-κB p65 antibody and protein A beads; blotted with anti-YAP and anti-p65

binding: binds
Substance: yes-associated protein 1 (YAP) (from UniProt P46937 1-504)
